Values from PubChem BioAssay AID1159584 (Peter MacCallum Cancer Centre, 2016)
Here is an unselected part of about 18,000 deposited reagents. Not all columns of the deposit are shown. The record does not give: the amount of reagent, the time to read-out.

Test: 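Genes whose loss is lethal only together with E-cadherin loss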 (primary screen)
Cells: human MCF10A breast epithelial cells, parental and CDH1-null
Knock-down reagent: siRNA against human genes
Read-out: 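ATP luminescence (CellTiter-Glo) viability per line relative to mean mock wells over all plates, and the ratio of CDH1-null to parental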
Reading the numbers: CDH1-null / parental viability ratio: higher = CDH1-null cells survive relatively better than parental; CDH1-null viability vs mock: higher = more viable CDH1-null cells
Units: CDH1-null viability vs mock in fraction of mock

Which result is listed for SERBP1 (SERPINE1 mRNA binding protein 1)?
CDH1-null / parental viability ratio: 1; CDH1-null viability vs mock: 0.71

With ASPNAT (aspartate N-acetyltransferase), what does the deposit list?
CDH1-null / parental viability ratio: 1.24; CDH1-null viability vs mock: 0.82

With ANKEF1 (ankyrin repeat and EF-hand domain containing 1), what was measured?
CDH1-null / parental viability ratio: 0.74; CDH1-null viability vs mock: 0.68

How did the screen score MRPS18A (mitochondrial ribosomal protein S18A)?
CDH1-null / parental viability ratio: 0.83; CDH1-null viability vs mock: 0.7

How did the screen score PICK1 (protein interacting with PRKCA 1)?
CDH1-null / parental viability ratio: 0.89; CDH1-null viability vs mock: 0.77

Which result is listed for HACE1?
CDH1-null / parental viability ratio: 1.31; CDH1-null viability vs mock: 0.98

What is on record for TBX5 (T-box transcription factor 5)?
CDH1-null / parental viability ratio: 0.94; CDH1-null viability vs mock: 0.73

What is on record for OR51A4 (olfactory receptor family 51 subfamily A member 4)?
CDH1-null / parental viability ratio: 0.88; CDH1-null viability vs mock: 0.5

How did the screen score TTLL3 (tubulin tyrosine ligase like 3)?
CDH1-null / parental viability ratio: 1; CDH1-null viability vs mock: 0.4

For FANCC (FA complementation group C), what was measured?
CDH1-null / parental viability ratio: 0.77; CDH1-null viability vs mock: 0.48

With RBM42 (RNA binding motif protein 42), what was measured?
CDH1-null / parental viability ratio: 1; CDH1-null viability vs mock: 0.35

For ATG12 (autophagy related 12), what was measured?
CDH1-null / parental viability ratio: 1.12; CDH1-null viability vs mock: 1.16

How did the screen score PMP22 (peripheral myelin protein 22)?
CDH1-null / parental viability ratio: 0.98; CDH1-null viability vs mock: 0.78

With LY6G6D (lymphocyte antigen 6 family member G6D), how do the results read?
CDH1-null / parental viability ratio: 1.01; CDH1-null viability vs mock: 0.88

Entries above whose gene name starts with P or p:
PICK1 (protein interacting with PRKCA 1) — CDH1-null / parental viability ratio: 0.89; CDH1-null viability vs mock: 0.77
PMP22 (peripheral myelin protein 22) — CDH1-null / parental viability ratio: 0.98; CDH1-null viability vs mock: 0.78

Further records follow.
What did the screen give for FSHB (follicle stimulating hormone subunit beta)?
CDH1-null / parental viability ratio: 0.73; CDH1-null viability vs mock: 0.64

What is on record for BIN3 (bridging integrator 3)?
CDH1-null / parental viability ratio: 1.07; CDH1-null viability vs mock: 0.76

For VAMP8 (vesicle associated membrane protein 8), what does the deposit list?
CDH1-null / parental viability ratio: 1.07; CDH1-null viability vs mock: 0.86

How did the screen score C8orf33 (chromosome 8 open reading frame 33)?
CDH1-null / parental viability ratio: 0.83; CDH1-null viability vs mock: 0.68

How did the screen score GPR52 (G protein-coupled receptor 52)?
CDH1-null / parental viability ratio: 0.74; CDH1-null viability vs mock: 0.75

For KCNAB3, what was measured?
CDH1-null / parental viability ratio: 1.14; CDH1-null viability vs mock: 1.05

Which result is listed for ZNF443 (zinc finger protein 443)?
CDH1-null / parental viability ratio: 1.52; CDH1-null viability vs mock: 0.7

With OR2T35, how do the results read?
CDH1-null / parental viability ratio: 1.04; CDH1-null viability vs mock: 1.12

Which result is listed for LMLN (leishmanolysin like peptidase)?
CDH1-null / parental viability ratio: 1.05; CDH1-null viability vs mock: 0.8

With TMEM200A (transmembrane protein 200A), how do the results read?
CDH1-null / parental viability ratio: 1.04; CDH1-null viability vs mock: 0.88

With FAXDC2 (fatty acid hydroxylase domain containing 2), what does the deposit list?
CDH1-null / parental viability ratio: 1.25; CDH1-null viability vs mock: 0.8

How did the screen score RFX5 (regulatory factor X5)?
CDH1-null / parental viability ratio: 1.04; CDH1-null viability vs mock: 0.26

With HS3ST1 (heparan sulfate-glucosamine 3-sulfotransferase 1), how do the results read?
CDH1-null / parental viability ratio: 1.1; CDH1-null viability vs mock: 1.14

For LRRC57 (leucine rich repeat containing 57), how do the results read?
CDH1-null / parental viability ratio: 1.25; CDH1-null viability vs mock: 0.64

With TCEAL8 (transcription elongation factor A like 8), what does the deposit list?
CDH1-null / parental viability ratio: 0.84; CDH1-null viability vs mock: 0.64

With SNX29P1 (sorting nexin 29 pseudogene 1), what does the deposit list?
CDH1-null / parental viability ratio: 0.79; CDH1-null viability vs mock: 0.74

What is on record for ESR1 (estrogen receptor 1)?
CDH1-null / parental viability ratio: 0.89; CDH1-null viability vs mock: 0.84

How did the screen score AFF3 (ALF transcription elongation factor 3)?
CDH1-null / parental viability ratio: 1.22; CDH1-null viability vs mock: 1

With RGS18 (regulator of G protein signaling 18), what was measured?
CDH1-null / parental viability ratio: 1.15; CDH1-null viability vs mock: 0.97

What did the screen give for LCA5 (lebercilin LCA5)?
CDH1-null / parental viability ratio: 1.28; CDH1-null viability vs mock: 0.92

With CNNM2, what does the deposit list?
CDH1-null / parental viability ratio: 1.15; CDH1-null viability vs mock: 0.6
